From US20240123070A1, “EPITOPE PEPTIDE OF RAS G13D MUTANT AND T CELL RECEPTOR RECOGNIZING RAS G13D MUTANT” (SHANGHAI GENBASE BIOTECHNOLOGY CO., LTD., priority 2021, published 2024)

Tested on: murine TCRβ constant region
Experiment: mTCRβ expression detection on Jurkat-NFAT-Luc cells
Assay type: cell-based
Details: TCR mutant transduced Jurkat-NFAT-Luc cells

Molecule	mTCRβ %
β95Q-S: B8.2.4 TCR point mutant, Vβ-CDR3 95Q to S; CDR3β ASSSTVPPQH (protein) TCR alpha: AQKITQTQPGMFVQEKEAVTLDCTYDTSDPSYGLFWYKQPSSGEMIFLIYQGSYDQQNATEGRYSLNFQKARKSANLVISASQLGDSAMYFCAMRERTGTASKLTFGTGTRLQVTLDIQNPEPAVYQLKDPRSQDSTLCLFTDFDSQINVPKTMESGTFITDKTVLDMKAMDSKSNGAIAWSNQTSFTCQDIFKETNATYPSSDVPCDATLTEKSFETDMNLNFQNLSVMGLRILLLKVAGFNLLMTLRLWSS TCR beta: DVKVTQSSRYLVKRTGEKVFLECVQDMDHENMFWYRQDPGLGLRLIYFSYDVKMKEKGDIPEGYSVSREKKERFSLILESASTNQTSMYLCASSSTVPPQHFGDGTRLSILEDLRNVTPPKVSLFEPSKAEIANKQKATLVCLARGFFPDHVELSWWVNGKEVHSGVSTDPQAYKESNYSYCLSSRLRVSATFWHNPRNHFRCQVQFHGLSEEDKWPEGSPKPVTQNISAEAWGRADCGITSASYQQGVLSATILYEILLGKATLYAVLVSTLVVMAMVKRKNS	77.3%
β96T-E: B8.2.4 TCR point mutant, Vβ-CDR3 96T to E (protein) TCR alpha: AQKITQTQPGMFVQEKEAVTLDCTYDTSDPSYGLFWYKQPSSGEMIFLIYQGSYDQQNATEGRYSLNFQKARKSANLVISASQLGDSAMYFCAMRERTGTASKLTFGTGTRLQVTLDIQNPEPAVYQLKDPRSQDSTLCLFTDFDSQINVPKTMESGTFITDKTVLDMKAMDSKSNGAIAWSNQTSFTCQDIFKETNATYPSSDVPCDATLTEKSFETDMNLNFQNLSVMGLRILLLKVAGFNLLMTLRLWSS TCR beta: DVKVTQSSRYLVKRTGEKVFLECVQDMDHENMFWYRQDPGLGLRLIYFSYDVKMKEKGDIPEGYSVSREKKERFSLILESASTNQTSMYLCASSQEVPPQHFGDGTRLSILEDLRNVTPPKVSLFEPSKAEIANKQKATLVCLARGFFPDHVELSWWVNGKEVHSGVSTDPQAYKESNYSYCLSSRLRVSATFWHNPRNHFRCQVQFHGLSEEDKWPEGSPKPVTQNISAEAWGRADCGITSASYQQGVLSATILYEILLGKATLYAVLVSTLVVMAMVKRKNS	73.8%
β95Q-T: B8.2.4 TCR point mutant, Vβ-CDR3 95Q to T; CDR3β ASSTTVPPQH (protein) TCR alpha: AQKITQTQPGMFVQEKEAVTLDCTYDTSDPSYGLFWYKQPSSGEMIFLIYQGSYDQQNATEGRYSLNFQKARKSANLVISASQLGDSAMYFCAMRERTGTASKLTFGTGTRLQVTLDIQNPEPAVYQLKDPRSQDSTLCLFTDFDSQINVPKTMESGTFITDKTVLDMKAMDSKSNGAIAWSNQTSFTCQDIFKETNATYPSSDVPCDATLTEKSFETDMNLNFQNLSVMGLRILLLKVAGFNLLMTLRLWSS TCR beta: DVKVTQSSRYLVKRTGEKVFLECVQDMDHENMFWYRQDPGLGLRLIYFSYDVKMKEKGDIPEGYSVSREKKERFSLILESASTNQTSMYLCASSTTVPPQHFGDGTRLSILEDLRNVTPPKVSLFEPSKAEIANKQKATLVCLARGFFPDHVELSWWVNGKEVHSGVSTDPQAYKESNYSYCLSSRLRVSATFWHNPRNHFRCQVQFHGLSEEDKWPEGSPKPVTQNISAEAWGRADCGITSASYQQGVLSATILYEILLGKATLYAVLVSTLVVMAMVKRKNS	66.8%
β95Q-Y: B8.2.4 TCR point mutant, Vβ-CDR3 95Q to Y; CDR3β ASSYTVPPQH (protein) TCR alpha: AQKITQTQPGMFVQEKEAVTLDCTYDTSDPSYGLFWYKQPSSGEMIFLIYQGSYDQQNATEGRYSLNFQKARKSANLVISASQLGDSAMYFCAMRERTGTASKLTFGTGTRLQVTLDIQNPEPAVYQLKDPRSQDSTLCLFTDFDSQINVPKTMESGTFITDKTVLDMKAMDSKSNGAIAWSNQTSFTCQDIFKETNATYPSSDVPCDATLTEKSFETDMNLNFQNLSVMGLRILLLKVAGFNLLMTLRLWSS TCR beta: DVKVTQSSRYLVKRTGEKVFLECVQDMDHENMFWYRQDPGLGLRLIYFSYDVKMKEKGDIPEGYSVSREKKERFSLILESASTNQTSMYLCASSYTVPPQHFGDGTRLSILEDLRNVTPPKVSLFEPSKAEIANKQKATLVCLARGFFPDHVELSWWVNGKEVHSGVSTDPQAYKESNYSYCLSSRLRVSATFWHNPRNHFRCQVQFHGLSEEDKWPEGSPKPVTQNISAEAWGRADCGITSASYQQGVLSATILYEILLGKATLYAVLVSTLVVMAMVKRKNS	78.4%
β96T-D: B8.2.4 TCR point mutant, Vβ-CDR3 96T to D (protein) TCR alpha: AQKITQTQPGMFVQEKEAVTLDCTYDTSDPSYGLFWYKQPSSGEMIFLIYQGSYDQQNATEGRYSLNFQKARKSANLVISASQLGDSAMYFCAMRERTGTASKLTFGTGTRLQVTLDIQNPEPAVYQLKDPRSQDSTLCLFTDFDSQINVPKTMESGTFITDKTVLDMKAMDSKSNGAIAWSNQTSFTCQDIFKETNATYPSSDVPCDATLTEKSFETDMNLNFQNLSVMGLRILLLKVAGFNLLMTLRLWSS TCR beta: DVKVTQSSRYLVKRTGEKVFLECVQDMDHENMFWYRQDPGLGLRLIYFSYDVKMKEKGDIPEGYSVSREKKERFSLILESASTNQTSMYLCASSQDVPPQHFGDGTRLSILEDLRNVTPPKVSLFEPSKAEIANKQKATLVCLARGFFPDHVELSWWVNGKEVHSGVSTDPQAYKESNYSYCLSSRLRVSATFWHNPRNHFRCQVQFHGLSEEDKWPEGSPKPVTQNISAEAWGRADCGITSASYQQGVLSATILYEILLGKATLYAVLVSTLVVMAMVKRKNS	73.8%
β96T-C: B8.2.4 TCR point mutant, Vβ-CDR3 96T to C; CDR3β ASSQCVPPQH (protein) TCR alpha: AQKITQTQPGMFVQEKEAVTLDCTYDTSDPSYGLFWYKQPSSGEMIFLIYQGSYDQQNATEGRYSLNFQKARKSANLVISASQLGDSAMYFCAMRERTGTASKLTFGTGTRLQVTLDIQNPEPAVYQLKDPRSQDSTLCLFTDFDSQINVPKTMESGTFITDKTVLDMKAMDSKSNGAIAWSNQTSFTCQDIFKETNATYPSSDVPCDATLTEKSFETDMNLNFQNLSVMGLRILLLKVAGFNLLMTLRLWSS TCR beta: DVKVTQSSRYLVKRTGEKVFLECVQDMDHENMFWYRQDPGLGLRLIYFSYDVKMKEKGDIPEGYSVSREKKERFSLILESASTNQTSMYLCASSQCVPPQHFGDGTRLSILEDLRNVTPPKVSLFEPSKAEIANKQKATLVCLARGFFPDHVELSWWVNGKEVHSGVSTDPQAYKESNYSYCLSSRLRVSATFWHNPRNHFRCQVQFHGLSEEDKWPEGSPKPVTQNISAEAWGRADCGITSASYQQGVLSATILYEILLGKATLYAVLVSTLVVMAMVKRKNS	82.3%
β95Q-W: B8.2.4 TCR point mutant, Vβ-CDR3 95Q to W; CDR3β ASSWTVPPQH (protein) TCR alpha: AQKITQTQPGMFVQEKEAVTLDCTYDTSDPSYGLFWYKQPSSGEMIFLIYQGSYDQQNATEGRYSLNFQKARKSANLVISASQLGDSAMYFCAMRERTGTASKLTFGTGTRLQVTLDIQNPEPAVYQLKDPRSQDSTLCLFTDFDSQINVPKTMESGTFITDKTVLDMKAMDSKSNGAIAWSNQTSFTCQDIFKETNATYPSSDVPCDATLTEKSFETDMNLNFQNLSVMGLRILLLKVAGFNLLMTLRLWSS TCR beta: DVKVTQSSRYLVKRTGEKVFLECVQDMDHENMFWYRQDPGLGLRLIYFSYDVKMKEKGDIPEGYSVSREKKERFSLILESASTNQTSMYLCASSWTVPPQHFGDGTRLSILEDLRNVTPPKVSLFEPSKAEIANKQKATLVCLARGFFPDHVELSWWVNGKEVHSGVSTDPQAYKESNYSYCLSSRLRVSATFWHNPRNHFRCQVQFHGLSEEDKWPEGSPKPVTQNISAEAWGRADCGITSASYQQGVLSATILYEILLGKATLYAVLVSTLVVMAMVKRKNS	78.2%
β95Q-V: B8.2.4 TCR point mutant, Vβ-CDR3 95Q to V; CDR3β ASSVTVPPQH (protein) TCR alpha: AQKITQTQPGMFVQEKEAVTLDCTYDTSDPSYGLFWYKQPSSGEMIFLIYQGSYDQQNATEGRYSLNFQKARKSANLVISASQLGDSAMYFCAMRERTGTASKLTFGTGTRLQVTLDIQNPEPAVYQLKDPRSQDSTLCLFTDFDSQINVPKTMESGTFITDKTVLDMKAMDSKSNGAIAWSNQTSFTCQDIFKETNATYPSSDVPCDATLTEKSFETDMNLNFQNLSVMGLRILLLKVAGFNLLMTLRLWSS TCR beta: DVKVTQSSRYLVKRTGEKVFLECVQDMDHENMFWYRQDPGLGLRLIYFSYDVKMKEKGDIPEGYSVSREKKERFSLILESASTNQTSMYLCASSVTVPPQHFGDGTRLSILEDLRNVTPPKVSLFEPSKAEIANKQKATLVCLARGFFPDHVELSWWVNGKEVHSGVSTDPQAYKESNYSYCLSSRLRVSATFWHNPRNHFRCQVQFHGLSEEDKWPEGSPKPVTQNISAEAWGRADCGITSASYQQGVLSATILYEILLGKATLYAVLVSTLVVMAMVKRKNS	62.7%
β96T-F: B8.2.4 TCR point mutant, Vβ-CDR3 96T to F (protein) TCR alpha: AQKITQTQPGMFVQEKEAVTLDCTYDTSDPSYGLFWYKQPSSGEMIFLIYQGSYDQQNATEGRYSLNFQKARKSANLVISASQLGDSAMYFCAMRERTGTASKLTFGTGTRLQVTLDIQNPEPAVYQLKDPRSQDSTLCLFTDFDSQINVPKTMESGTFITDKTVLDMKAMDSKSNGAIAWSNQTSFTCQDIFKETNATYPSSDVPCDATLTEKSFETDMNLNFQNLSVMGLRILLLKVAGFNLLMTLRLWSS TCR beta: DVKVTQSSRYLVKRTGEKVFLECVQDMDHENMFWYRQDPGLGLRLIYFSYDVKMKEKGDIPEGYSVSREKKERFSLILESASTNQTSMYLCASSQFVPPQHFGDGTRLSILEDLRNVTPPKVSLFEPSKAEIANKQKATLVCLARGFFPDHVELSWWVNGKEVHSGVSTDPQAYKESNYSYCLSSRLRVSATFWHNPRNHFRCQVQFHGLSEEDKWPEGSPKPVTQNISAEAWGRADCGITSASYQQGVLSATILYEILLGKATLYAVLVSTLVVMAMVKRKNS	76.9%
β96T-A: B8.2.4 TCR point mutant, Vβ-CDR3 96T to A; CDR3β ASSQAVPPQH (protein) TCR alpha: AQKITQTQPGMFVQEKEAVTLDCTYDTSDPSYGLFWYKQPSSGEMIFLIYQGSYDQQNATEGRYSLNFQKARKSANLVISASQLGDSAMYFCAMRERTGTASKLTFGTGTRLQVTLDIQNPEPAVYQLKDPRSQDSTLCLFTDFDSQINVPKTMESGTFITDKTVLDMKAMDSKSNGAIAWSNQTSFTCQDIFKETNATYPSSDVPCDATLTEKSFETDMNLNFQNLSVMGLRILLLKVAGFNLLMTLRLWSS TCR beta: DVKVTQSSRYLVKRTGEKVFLECVQDMDHENMFWYRQDPGLGLRLIYFSYDVKMKEKGDIPEGYSVSREKKERFSLILESASTNQTSMYLCASSQAVPPQHFGDGTRLSILEDLRNVTPPKVSLFEPSKAEIANKQKATLVCLARGFFPDHVELSWWVNGKEVHSGVSTDPQAYKESNYSYCLSSRLRVSATFWHNPRNHFRCQVQFHGLSEEDKWPEGSPKPVTQNISAEAWGRADCGITSASYQQGVLSATILYEILLGKATLYAVLVSTLVVMAMVKRKNS	76.4%
